# Assay results as given in PubChem BioAssay AID1671190 (National Center for Advancing Translational Sciences (NCATS), 2021).
# By UniProt entry, the sequences of proteins in these tests, tags left out. Where a name states a change or a piece, a line headed by the entry shows the natural chain unless it says otherwise.
# UniProt P18054: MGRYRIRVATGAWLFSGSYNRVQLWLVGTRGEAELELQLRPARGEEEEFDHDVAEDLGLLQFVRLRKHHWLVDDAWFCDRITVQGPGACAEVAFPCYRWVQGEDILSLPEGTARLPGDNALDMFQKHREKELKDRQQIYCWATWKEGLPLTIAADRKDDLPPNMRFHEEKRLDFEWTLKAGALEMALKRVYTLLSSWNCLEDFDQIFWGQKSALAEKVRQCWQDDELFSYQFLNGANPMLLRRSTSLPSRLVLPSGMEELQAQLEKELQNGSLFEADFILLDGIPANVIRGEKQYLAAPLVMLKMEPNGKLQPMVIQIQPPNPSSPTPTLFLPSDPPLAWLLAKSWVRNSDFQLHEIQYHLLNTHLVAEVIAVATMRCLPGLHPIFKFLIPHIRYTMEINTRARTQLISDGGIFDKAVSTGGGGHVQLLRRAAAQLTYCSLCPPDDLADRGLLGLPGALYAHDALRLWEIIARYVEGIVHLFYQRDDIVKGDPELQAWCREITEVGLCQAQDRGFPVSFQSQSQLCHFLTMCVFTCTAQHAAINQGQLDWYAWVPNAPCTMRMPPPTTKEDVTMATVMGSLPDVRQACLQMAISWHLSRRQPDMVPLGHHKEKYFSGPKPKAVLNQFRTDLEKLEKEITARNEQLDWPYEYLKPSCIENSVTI
# Values joined by “and” are separate entries in the source; they are usually repeats but may differ in a detail not shown here. Identical values can stand only once. The campaign covered roughly 580,000 compounds. About 6,100 (1.1%) were called active. Inconclusive results, whose numbers are uncertain, are shown with a selection of clear calls. Calls follow the shape of the dose curve; as a rule, active = well fitted inhibition curve with a large enough effect; inconclusive = small, poorly fitted or top-dose-only effect, or another doubt; inactive = no such curve, though single readings can be large or run the other way. A potency beside an inconclusive call is a rough fit, not a confirmed value.
# Target: Polyunsaturated fatty acid lipoxygenase ALOX12 (Homo sapiens) (UniProt P18054)
# Assay: Primary qHTS assay for inhibitors of human arachidonate 12S-lipoxygenase (ALOX12): Round 2
# Details: purified 12hLO, xylenol orange hydroperoxide absorbance; activity change, negative = inhibition: at 108 µM (top of the series) unless noted
# How it was run: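 Purified human 12hLO (150 nM final) in 25 mM Hepes, 0.01% Triton X-100, pH 7.0 was preincubated 15 min at room temperature with compound. Then 40 uM arachidonic acid was added, 30 min. Hydroperoxide was read by Fe-XO absorbance ratio 573/405 nm.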
# % is scaled to controls: 0 for no effect and ±100 for the full control effect; potency is read from the fitted curve at half-maximal effect.
Structure (SMILES),Potency,"activity change, negative = inhibition"
CC(=O)Nc1ccc(S(=O)(=O)N(C)S(=O)(=O)c2ccc(F)cc2)cc1,"inconclusive: 20 µM [inhibitor, partial curve, poor fit]",–
CCOC(=O)c1ccccc1NC(=O)COC(=O)CN1C(=O)C2CC=CCC2C1=O (stereo not drawn),"inconclusive: 35.5 µM [inhibitor, partial curve, poor fit]",–
O=C(Nc1cccc2ncccc12)c1ccc(Cl)cc1,"inconclusive: 89.1 µM [inhibitor, partial curve, poor fit]",–
COc1ccc(-c2cc(C(=O)N(C)CC(=O)Nc3cccc(F)c3)c3ccccc3n2)cc1,"inconclusive: 56.2 µM [inhibitor, partial curve, poor fit]",–
Cc1ccc(C(=O)OC2CCOC2=O)s1 (stereo not drawn),–,inactive: -28.6%
O=C(O)CSC1CC(=O)N(c2cccc(Cl)c2)C1=O (stereo not drawn),–,inactive: -0.937%
COc1ccc(NC(=S)N(CCc2c(C)[nH]c3ccc(C)cc23)Cc2cccs2)cc1,"inconclusive: 39.8 µM [inhibitor, partial curve, poor fit]",–
CCOc1ccc(OCC)c(Nc2cc(C)nc3ncnn23)c1,–,inactive: 84.3%
O=C(c1scc2c1OCCO2)N1CCC2(CC1)c1ccccc1CC2O (stereo not drawn),"inconclusive: 39.8 µM [inhibitor, partial curve, poor fit]",–
O=S(=O)(c1ccccc1)N1CCCC(Cn2c(C3CC3)nc3cccnc32)C1 (stereo not drawn),–,inactive: 6.22%
COCCOCC(=O)N1CCC(c2noc(C3CC3)n2)C1 (stereo not drawn),"inconclusive: 79.4 µM [inhibitor, single point]",–
N#C/C(=C\c1cn(Cc2ccc(F)cc2)c2ccccc12)C(N)=O,"inconclusive: 100 µM [inhibitor, partial curve, poor fit]",–
O=C(COC(=O)Cc1ccsc1)Nc1cccc(F)c1,–,inactive: 2.29%
Cc1cccc(-c2nnc(SCC(=O)Nc3nncs3)n2C)c1,"inconclusive: 20 µM [inhibitor, partial curve]",–
CCn1nc(CC(C)C)cc1C(=O)N1C[C@@H](NC(C)=O)[C@H](C(C)C)C1,–,inactive: 21.9%
COc1ccc(-c2nc3ccc(Cl)cn3c2Cc2ccsc2)cc1OC,"inconclusive: 35.5 µM [inhibitor, partial curve, poor fit]",–
CC(C)c1ccc(N2C(=O)N(Cc3ccccc3Cl)c3ccccc3S2(=O)=O)cc1,–,inactive: -16.9%
CCc1nc2c(OCCC3CCCCC3)cccn2c1N(C)C(=O)c1ccncc1,"inconclusive: 56.2 µM [inhibitor, partial curve, poor fit]",–
C=CCOc1cccc(-c2nc(C(=O)N(C)Cc3ccco3)cs2)c1,"inconclusive: 14.1 µM [inhibitor, partial curve, poor fit]",–
CCOC(=O)C1CCCN(CC(O)COC(c2ccccc2)c2ccccc2)C1 (stereo not drawn),–,inactive: -18.3%
O=C(c1ccc(Cl)c(S(=O)(=O)N2CCc3ccccc32)c1)N1CCN(c2ccccc2O)CC1,"inconclusive: 112 µM [inhibitor, partial curve, poor fit]",–
S=C(NCCC1=CCCCC1)Nc1ccccc1,–,inactive: -11.4%
Cc1cccc(NC(=O)c2ccc(NC(=O)CC3SC(N4CCCC4)=NC3=O)cc2)n1 (stereo not drawn),"inconclusive: 11.2 µM [inhibitor, full curve, poor fit]",–

Structure (SMILES),Potency,"activity change, negative = inhibition"
CCN(CC)CCNC(=O)c1ccc(NC(=O)c2ccccc2-c2ccc(C(F)(F)F)cc2)cc1,"inconclusive: 50.1 µM [inhibitor, partial curve, poor fit]",–
COc1ccc(/C=C2/CSC/C(=C/c3ccc(OC)c(OC)c3)C2=O)cc1OC,–,inactive: -22.8%
CCOC(=O)c1sc(NC(=O)C2CC(=O)N(c3ccc(C)cc3)C2)nc1C (stereo not drawn),"inconclusive: 44.7 µM [inhibitor, partial curve, poor fit]",–
CCCCNS(=O)(=O)c1ccc2nc(SCC(=O)Nc3ccccc3Cl)[nH]c2c1,"inconclusive: 44.7 µM [inhibitor, partial curve, poor fit]",–
O=C(NC1C[C@H]2CC[C@@H](C1)N2S(=O)(=O)c1cccs1)c1ccncc1 (stereo partly drawn),"inconclusive: 39.8 µM [inhibitor, full curve]",–
Cc1n[nH]c(=O)c2c(NC(=O)CSc3nc4ccccc4c(=O)n3C(C)C)oc(C)c12,"inconclusive: 50.1 µM [inhibitor, partial curve, poor fit]",–
C=C(C)COc1cc(O)c2c(=O)cc(-c3ccccc3)oc2c1,"inconclusive: 4.47 µM [inhibitor, full curve, poor fit]",–
O=C(Nc1nc(COc2ccccc2)cs1)c1ccccc1F,–,inactive: 15.8%
CC1CN(C(=S)SCC(=O)c2ccc(Cl)cc2)CC(C)O1 (stereo not drawn),"inconclusive: 89.1 µM [inhibitor, partial curve, poor fit]",–
COc1cn(-c2ccccc2)nc1C(=O)Nc1ccccc1,–,inactive: -9.51%
CC1(C)CC(=O)C(=Cc2cn(-c3ccccc3)nc2-c2ccc(Cl)cc2)C(=O)C1,"inconclusive: 3.16 µM [inhibitor, full curve, poor fit]",–
CSc1ccccc1OCc1cc(C(=O)NCCN2CCCc3ccccc32)no1,–,inactive: -11.1%
O=C1Nc2ccccc2O[C@H]2C[C@@H]1N(C(=O)c1ccccc1)C2,"inconclusive: 28.2 µM [inhibitor, full curve, poor fit]",–
O=C(Nc1ccccc1)OCC(CN1CCCCC1)OC(=O)Nc1ccccc1 (stereo not drawn),"inconclusive: 18.1 µM [inhibitor, partial curve, poor fit] and inconclusive: 31.6 µM [inhibitor, partial curve]",–
CC1=C(C(=O)N2CCOCC2)C(c2cc(C)cs2)NC(=O)N1 (stereo not drawn),"inconclusive: 15.8 µM [inhibitor, partial curve, poor fit]",–
Cc1c(C(=O)OCC(C)C)[nH]c2c1C(=O)CC(c1cccs1)C2 (stereo not drawn),–,inactive: 15.6%
C#CCN(C)C(=O)[C@@H]1CCCN1[C@H](CC(C)C)C(=O)NC,"inconclusive: 10 µM [inhibitor, full curve]",–
CC(C)Cn1cc(C(=O)NCC2CCCO2)c2c3ccccc3n(C)c2c1=O (stereo not drawn),"inconclusive: 141 µM [inhibitor, partial curve, poor fit]",–
Cc1ccc(-c2cc(-c3cccs3)[nH]n2)c(O)c1,"inconclusive: 31.6 µM [inhibitor, partial curve, poor fit]",–
Cc1cccn2cc(CSc3nnc4c(Cl)cc(C(F)(F)F)cn34)nc12,–,inactive: -37.6%
CN(CC(=O)NC(=O)NCc1ccccc1)CC(=O)Nc1cccc(F)c1,–,inactive: -24%
O=C(N[C@H](c1cccc(Br)c1)[C@@H]1CCCC=C1c1ccccc1)C(F)(F)F,–,inactive: 14.1%
Cc1cc(Nc2ccc3c(c2)OCCO3)c2cccc(C)c2n1,"inconclusive: 0.282 µM [inhibitor, full curve, poor fit]",–

Structure (SMILES),Potency,"activity change, negative = inhibition"
COc1ccc(-c2cc(C(=O)Nc3cc(Cl)ccc3OC)no2)cc1,–,inactive: 10.4%
CC(CCN1CCC(C(O)(c2ccccc2)c2ccccc2)CC1)Oc1ccc(OC(F)(F)F)cc1 (stereo not drawn),"inconclusive: 44.7 µM [inhibitor, partial curve, poor fit]",–
COC(=O)c1ccc(NC(=O)CN2C(=O)CNC2=O)cc1,–,inactive: 20.5%
C[C@@H]1CCCCO[C@@H](CN(C)Cc2ccccc2)[C@@H](C)CN([C@H](C)CO)C(=O)c2cc(NC(=O)Nc3cccc4ccccc34)ccc2O1,"inconclusive: 126 µM [inhibitor, single point]",–
CN1c2cc(C(=O)NCc3ccc(F)cc3)ccc2C(=O)N2CCCCCC21 (stereo not drawn),"inconclusive: 31.6 µM [inhibitor, full curve, poor fit]",–
Cc1cc(SCC(=O)c2ccc(F)cc2)nc2ccccc12,–,inactive: 2.95%
O=C(Nc1cccc(-c2cn3ccccc3n2)c1)c1ccccc1,–,inactive: 8.14%
Cc1ccc2c(c1)Oc1ccc(NC(=O)CCl)cc1C(=O)N2,"inconclusive: 50.1 µM [inhibitor, partial curve, poor fit]",–
NC(N)=NN=C1CCCCCCCCCCC1,"inconclusive: 11.2 µM [inhibitor, partial curve, poor fit]",–
O=C(NCc1c[nH]c2ccccc12)c1ccccc1,"inconclusive: 112 µM [inhibitor, single point]",–
CCc1ccc2oc(=O)cc(-c3oc4ccccc4c3N)c2c1,–,inactive: 21.5%
COC(=O)C1=C(C)N(C)C(=O)NC1c1ccccc1OC(F)F (stereo not drawn),–,inactive: 39.7%
Nc1c(C(=O)Nc2ccc3c(c2)OCCO3)nnn1Cc1ccc(Cl)cc1,–,inactive: -29.9%
O=C(Nc1ccccn1)c1onc2c1CCCC2,–,inactive: 2.2%
COc1ccc(CCC(=O)c2c(O)cc(O[C@@H]3O[C@H](CO)[C@@H](O)[C@H](O)[C@@H]3O[C@@H]3O[C@@H](C)[C@H](O)[C@@H](O)[C@@H]3O)cc2O)cc1O,"inconclusive: 17.2 µM [inhibitor, partial curve]",–
Cc1ccc2cc(C(=O)N(C)Cc3ccc(C)o3)[nH]c2c1,"inconclusive: 100 µM [inhibitor, single point]",–
c1ccc(-c2nc3ncccc3[nH]2)nc1,inactive,–
CSc1ccccc1C(=O)Nc1nc(-c2nc3ccccc3s2)cs1,–,inactive: -17.1%
O=C(CN(Cc1ccccc1)C(=O)CCC(=O)Nc1ccccn1)NCCc1ccccc1,"inconclusive: 0.316 µM [inhibitor, full curve, poor fit]",–
Cc1cccc(C)c1NC(=S)Nc1c(C)n(C)n(-c2ccccc2)c1=O,"inconclusive: 44.7 µM [inhibitor, partial curve, poor fit]",–
CC(=O)c1c(C)nc(-c2cccc([N+](=O)[O-])c2)n1O,"inconclusive: 44.7 µM [inhibitor, partial curve, poor fit]",–
COc1cccc(C2C(C(=O)c3cccs3)=C(O)C(=O)N2c2cc(C)on2)c1 (stereo not drawn),"inconclusive: 25.1 µM [inhibitor, partial curve, poor fit]",–
